Results from PubChem BioAssay AID493014 (National Center for Advancing Translational Sciences (NCATS), 2011).
The campaign covered roughly 340,000 compounds. About 170 (0.05%) were called active. Inconclusive results, whose numbers are uncertain, are shown with a selection of clear calls. Calls come from the whole dose curve; as a rule, active = well fitted inhibition curve with a large enough effect in the signal ratio, with a control signal flat (not every such curve was filed as active); inconclusive = small, poorly fitted or top-dose-only effect, or effect the other way, or a change in a side signal; inactive = flat fitted curve, though single readings scatter; the % refers to the signal ratio. Potencies of inconclusive entries are doubtful fits and often do not repeat.

Experiment: qHTS Assay to Find Inhibitors of Chronic Active B-Cell Receptor Signaling;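 for activity change, negative = inhibition: plate controls were basal doxycycline-induced cells for no effect and cells given 10 µM MG132 for full effect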
Settings: ABC-DLBCL IkBa-CBG/CBR reporter, luminescence ratio (green luciferase fused to IkBa over red control in TMD8 lymphoma cells), 4 h; activity change, negative = inhibition: at 46.1 µM (top of the series)
Outline: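 Doxycycline induced both beetle luciferases in TMD8 lymphoma cells; IKK-driven degradation limits the IkappaBalpha-fused green signal, while red luminescence normalises for cell number and nonspecific effects. Compounds tested up to 46 uM, 4 hrs.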
Potency is the fitted concentration of half-maximal effect.

SMILES | activity change, negative = inhibition | Potency
COc1cc2c(cc1OC)-c1cc(Nc3ccccc3)nc(=O)n1CC2 | inconclusive: -18.4% | 
O=C(N/N=C/c1cc(Br)cs1)C(O)c1ccccc1 (stereo unspecified) | inconclusive: -13% | 
O=C(O)C1CCCCC1C(=O)Nc1ccccc1F (stereo unspecified) | inconclusive: 11.5% | 
Cc1ccc(S(=O)(=O)/N=C(/NNC(=O)c2cccc(Cl)c2)c2ccccc2)cc1 |  | inconclusive: 15.8 µM [falling, partial curve]
COc1ccc(C(=O)NCc2ccc(Cl)cc2)cc1S(=O)(=O)N1CCCC1 |  | inconclusive: 25.9 µM [falling, partial curve, poor fit]
CCN(CC)CCCNC(=O)c1cc(Nc2ccc(OC)cc2OC)nc2ccccc12 | inconclusive: -2.15% | 
CC(=O)c1ccc(NC(=S)NCc2ccco2)cc1 | inconclusive: -3.29% | 
C=C1/C=C(\C)[C@](C)(O)C[C@H](O)CC(=O)[C@H](O)[C@@H](O)[C@H](C)C[C@H](C)OC(=O)/C(C)=C/CC/C=C/[C@@H]2O[C@H]2C[C@H](C)C1 |  | inconclusive: 29.1 µM [falling, partial curve, poor fit]
Cc1cccc(N2CCN(CC(O)COCc3cccs3)CC2)c1C (stereo unspecified) |  | inconclusive: 20.6 µM [falling, single point]
CCOc1ccc(NS(=O)(=O)c2cnc(Cl)c(Cl)c2)cc1 |  | inconclusive: 25.9 µM [falling, single point]
O=C(Cn1cnc2ccccc2c1=O)NCc1ccc2c(c1)OCO2 | inconclusive: 0.0289% | 
CNS(=O)(=O)c1cccc(C(=O)OCC(=O)NC(C)CCc2ccccc2)c1 (stereo unspecified) | inconclusive: -0.204% | 
CCN(CC)S(=O)(=O)c1cc(NC(=S)NC(=O)C2CCCC2)ccc1C | inconclusive: -2.55% | 
COc1cc(OC)cc(-c2cc3nc(C)c(CCC(=O)O)c(=O)n3[nH]2)c1 |  | inconclusive: 18.4 µM [falling, partial curve]
C=CCn1c(-c2cccc3ccccc23)n[nH]c1=S |  | inconclusive: 29.1 µM [falling, single point]
CCCNC(=O)c1cc(-c2ccc3c(c2)OCO3)on1 |  | inconclusive: 35.5 µM [falling, partial curve]
COc1ccc(NC(=O)c2cc(C)nc3ccccc23)cc1S(=O)(=O)N1CCOCC1 | inactive | 
COc1ccc(OC)c(-n2c(-c3cc(-c4ccco4)[nH]n3)n[nH]c2=S)c1 | inconclusive: 21.5% | 
CCC(=O)NNC(=O)Cc1c(C)n(C(=O)c2ccc(Cl)cc2)c2ccc(OC)cc12 |  | inconclusive: 11.2 µM [falling, partial curve, poor fit]
O=S(=O)(Nc1ccc(N2CCCCC2)cc1)c1cccs1 | inconclusive: 0.645% | 
COc1ccc(CN2C(=O)N(c3ccc(OC)cc3)C(=O)C2CC(=O)Nc2ccccc2)cc1 (stereo unspecified) | inactive | 
O=C(COc1ccccc1)Nc1nc2ccccc2[nH]1 |  | inconclusive: 5.8 µM [falling, single point]
COc1ccc(-c2nc(-c3cccs3)c(-c3cccs3)[nH]2)cc1O |  | inconclusive: 16.4 µM [falling, partial curve, poor fit]
N#Cc1cccc(NC(=O)COC(=O)c2ccccc2Sc2ccccc2C#N)c1 | inconclusive: 28.3% | 
CC(=O)N1CN(CCCn2ccnc2)Cc2c1sc1c2CCCC1 |  | inconclusive: 25.1 µM [falling, single point]
COc1cc(C(=O)Nc2cccc(-c3nc4ccccc4o3)c2C)cc(OC)c1OC | inconclusive: 16.4% | 

For reference, two of the compounds above.
SMILES | activity change, negative = inhibition | Potency
COc1ccc(OC)c(-n2c(-c3cc(-c4ccco4)[nH]n3)n[nH]c2=S)c1 | inconclusive: 21.5% | 
CCC(=O)NNC(=O)Cc1c(C)n(C(=O)c2ccc(Cl)cc2)c2ccc(OC)cc12 |  | inconclusive: 11.2 µM [falling, partial curve, poor fit]

(listing goes on)

SMILES | activity change, negative = inhibition | Potency
O=c1c2c(nc3cc(-c4ccc(F)cc4)[nH]n13)CCC2 |  | inconclusive: 14.6 µM [falling, partial curve]
O=S(=O)(Nc1nc2ccccc2nc1Cl)c1ccccc1 | inactive | 
Cc1cc(N2CCN(C)CC2)nc2ccc(NC(=S)NCCCN3CCN(C)CC3)cc12 |  | inconclusive: 28.2 µM [falling, single point]
Nc1nc(CSc2n[nH]c(-c3ccccc3)n2)nc(Nc2ccccc2)n1 | inconclusive: -16.3% | 
O=[N+]([O-])c1cc(/C=N/N/C(=N/c2ccccn2)c2ccccn2)ccc1O |  | inconclusive: 35.5 µM [falling, single point]
COc1ccccc1OCc1nc2ccccc2s1 |  | inconclusive: 4.11 µM [falling, partial curve]
CCCCCC1CC(CC(=O)O)C(=O)O1 (stereo unspecified) | inconclusive: 12.9% | 
O=C(Nc1ccccc1[N+](=O)[O-])C1COc2ccccc2O1 (stereo unspecified) | inconclusive: 7.93% | 
Cc1cc(=O)oc2ccc(OC(=O)c3cccc(S(=O)(=O)N4CCOCC4)c3)cc12 | inconclusive: -11.1% | 
CN(Cc1ccc(-n2cccn2)cc1)C(=O)c1cnn2c1NC(c1ccco1)CC2C(F)(F)F (stereo unspecified) |  | inconclusive: 23.1 µM [falling, single point]
CCOC(=O)C1Nc2ccc(C(=O)O)cc2C2C=CCC12 (stereo unspecified) | inactive | 
CCc1ccc2oc(-c3ccc(NC(C)=O)cc3)nc2c1 |  | inconclusive: 22.4 µM [falling, single point]
Cc1[nH]nc(Nc2ccc(Br)cc2)c1[N+](=O)[O-] | inconclusive: 0% | 
CC(=O)Nc1sc2c(c1-c1nc3ccccc3s1)CCN(C(C)C)C2 |  | inconclusive: 12.6 µM [rising, partial curve]
CCC(=O)N(CCc1ccccc1C)Cc1cc2cc3c(cc2[nH]c1=O)OCO3 |  | inconclusive: 23.1 µM [rising, single point]
COc1ccccc1/C=C1/SC(=O)N(CCC(=O)Nc2ccc(S(=O)(=O)Nc3nccs3)cc2)C1=O |  | inconclusive: 29.1 µM [cytotoxic, single point]
CCNC(=S)NNc1nc(N2CCCCC2)nc(N2CCOCC2)n1 | inactive | 
COc1cccc(-c2nc(CS(=O)(=O)CC(=O)NCCc3cc(OC)ccc3OC)c(C)o2)c1 | inactive | 
O=C(CCN1Cc2ccccc2C1)c1ccc2c(c1)OCCO2 | inconclusive: 14.9% | 
CCOc1ccccc1NC(=O)CSc1nnc(-c2ccco2)n1Cc1ccco1 | inconclusive: -2% | 
Nn1c(CSc2ccccn2)nc2ccccc2c1=O | inactive | 
CC1CN(c2nnc(NC(=O)c3ccccc3)s2)CC(C)O1 (stereo unspecified) | inconclusive: -16.1% | 
CCOC(=O)COc1cc(-n2c(=S)[nH]c3cc(OC)c(OC)cc3c2=O)c(Cl)cc1Cl |  | inconclusive: 20 µM [rising, single point]
Cc1ccc(N2CC(=O)Nc3c(sc4nc(C)cc(C)c34)C2=O)cc1 | inconclusive: 22.9% | 
O=C(N/N=C/c1ccc(N2CCCCC2)o1)c1ccccc1[N+](=O)[O-] |  | inconclusive: 20.6 µM [falling, partial curve]
COc1cccc(C2CC(c3ccccc3Cl)n3nnnc3N2)c1 (stereo unspecified) | inconclusive: 2.66% | 

SMILES | activity change, negative = inhibition | Potency
Clc1ccc(Cc2nc(-c3ccncc3)no2)cc1 | inconclusive: 9.06% | 
Cc1ccc2nc(SCC(=O)OCc3ccccc3)nc(=O)n2c1 | inactive | 
COc1ccc(S(=O)(=O)NCCOc2ccccc2)cc1C | inconclusive: -60.3% | 
CCCCn1c(=O)c(Cc2ccccc2)c(O)c2ccccc21 | inactive | 
C/C(=N/O)c1ccc2c(c1)OCCOCCOc1cc(/C(C)=N/O)ccc1OCCOCCO2 | inactive | 
COc1ccc(C(=O)Nc2ccccc2C(=O)N/N=C/c2cccc3ccccc23)cc1 | inactive | 
CCOC(=O)c1c(/N=C/c2ccc(C)cc2O)sc2c1CCC2 | inconclusive: 2.57% | 
O=C1C[C@H]2[C@H](CO)[C@@H](OC(=O)c3ccc(-c4ccccc4)cc3)C[C@H]2O1 | inconclusive: 2.24% | 
O=C(NN1C(=O)NC2(CCCCC2)C1=O)c1ccc(Cl)s1 | inconclusive: 9.98% | 
Cc1ccc(C(=O)NCCn2cc(SCC(=O)Nc3cc(C)on3)c3ccccc32)cc1 | inconclusive: 1.52% | 
CC(=O)Oc1ccccc1/C=C/c1ccc2ccccc2[n+]1C |  | inconclusive: 35.5 µM [falling, single point]
COc1ccc(CNc2ncnc3c2c(-c2ccccc2)cn3-c2ccc(C)c(Cl)c2)cc1 | inconclusive: 11.1% | 
Fc1ccccc1N1CCN(Cc2cnc(Cl)s2)CC1 | inactive | 
Cc1cccc(C(=O)Oc2csc(=S)n2C(=O)c2cccc(C)c2)c1 |  | inconclusive: 29.1 µM [falling, single point]
O=C(N/N=C/c1cccc(Oc2ccccc2)c1)c1ccccc1F |  | inconclusive: 28.2 µM [falling, single point]
COc1cccc(NC(=O)COC(=O)c2ccccc2F)c1 |  | inconclusive: 14.6 µM [falling, partial curve, poor fit]
CC(C)CN(CC(C)C)C(=O)CCCC(=O)N(CC(C)C)CC(C)C | inactive | 
CCOC(=O)COc1ccc(C)cc1-c1ccno1 | inconclusive: -0.879% | 
CC(=O)c1ccc2c(c1)c1ccccc1n2CC(C)C | inconclusive: 2.22% | 
Cc1ccc(C)c(OCCC(=O)OCC(=O)c2ccc3c(c2)NC(=O)CO3)c1 | inconclusive: 13.6% | 
C=CCC[C@@H](Cc1ccc(F)cc1)C(=O)OC[C@H](Cc1c[nH]c2ccccc12)NC(=O)[C@@H](CC=C)CC(=O)NCCO | inconclusive: -11.1% | 
CC(C)CC(=O)Nc1ccc(C(=O)Cn2c(=O)oc3ccccc32)cc1 |  | inconclusive: 25.1 µM [falling, single point]
Cc1cccc(C)c1OCC(=O)N=Nc1c(O)[nH]c2ccc(Br)cc12 | inactive | 
CC(C)OC(=O)c1cc2ccccc2[nH]1 |  | inconclusive: 1.84 µM [rising, partial curve, poor fit]

In a second layout: results already given.
SMILES,"activity change, negative = inhibition",Potency
O=C(N/N=C/c1ccc(N2CCCCC2)o1)c1ccccc1[N+](=O)[O-],,"inconclusive: 20.6 µM [falling, partial curve]"
COc1cccc(C2CC(c3ccccc3Cl)n3nnnc3N2)c1 (stereo unspecified),inconclusive: 2.66%,
Clc1ccc(Cc2nc(-c3ccncc3)no2)cc1,inconclusive: 9.06%,
Cc1ccc2nc(SCC(=O)OCc3ccccc3)nc(=O)n2c1,inactive,
COc1ccc(S(=O)(=O)NCCOc2ccccc2)cc1C,inconclusive: -60.3%,
CCCCn1c(=O)c(Cc2ccccc2)c(O)c2ccccc21,inactive,
